{"sequences": {"note": "By UniProt entry, the sequences of proteins in these tests, tags left out.", "UniProt P49336": "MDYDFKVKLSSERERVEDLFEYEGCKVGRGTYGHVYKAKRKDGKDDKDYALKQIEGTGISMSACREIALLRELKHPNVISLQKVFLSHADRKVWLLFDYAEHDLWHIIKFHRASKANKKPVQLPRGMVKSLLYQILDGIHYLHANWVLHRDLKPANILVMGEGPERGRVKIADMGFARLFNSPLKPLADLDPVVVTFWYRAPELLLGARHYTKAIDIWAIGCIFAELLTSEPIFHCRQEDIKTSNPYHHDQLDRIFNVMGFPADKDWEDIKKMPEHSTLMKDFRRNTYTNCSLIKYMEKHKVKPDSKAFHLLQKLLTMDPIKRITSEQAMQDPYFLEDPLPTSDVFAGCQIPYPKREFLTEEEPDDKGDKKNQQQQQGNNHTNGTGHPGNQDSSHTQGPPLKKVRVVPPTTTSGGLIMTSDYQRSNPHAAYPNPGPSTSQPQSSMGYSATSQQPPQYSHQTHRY"}, "source": "paper PMC7304162", "target": "Cyclin dependent kinase 8 (CDK8) (human (endogenous in HCT116 and LOVO)) (UniProt P49336)", "assay": "co-IP; whole cell extract of HCT116 or LOVO cells in RIPA buffer; primary antibody 12 h at 4°C, Protein G Sepharose beads, Western blot", "note": "These are yes or no findings as the source states them, for the method shown. In cells and extracts the contact can be indirect.", "data": [{"substance": "p53 (from UniProt P04637 1-393)", "values": [{"measurement": "binding", "result": "no binding"}]}]}
